Data published in paper PMC12586852.
These are yes or no findings as the source states them, for the method shown. Binding seen in cells or lysates may run through a third protein. Some results given as binding are weak or reduced against the parent protein; the word gives no strength.

Protein sequences, listed by entry. Tags and fused reporters are not part of them.
UniProt P78527: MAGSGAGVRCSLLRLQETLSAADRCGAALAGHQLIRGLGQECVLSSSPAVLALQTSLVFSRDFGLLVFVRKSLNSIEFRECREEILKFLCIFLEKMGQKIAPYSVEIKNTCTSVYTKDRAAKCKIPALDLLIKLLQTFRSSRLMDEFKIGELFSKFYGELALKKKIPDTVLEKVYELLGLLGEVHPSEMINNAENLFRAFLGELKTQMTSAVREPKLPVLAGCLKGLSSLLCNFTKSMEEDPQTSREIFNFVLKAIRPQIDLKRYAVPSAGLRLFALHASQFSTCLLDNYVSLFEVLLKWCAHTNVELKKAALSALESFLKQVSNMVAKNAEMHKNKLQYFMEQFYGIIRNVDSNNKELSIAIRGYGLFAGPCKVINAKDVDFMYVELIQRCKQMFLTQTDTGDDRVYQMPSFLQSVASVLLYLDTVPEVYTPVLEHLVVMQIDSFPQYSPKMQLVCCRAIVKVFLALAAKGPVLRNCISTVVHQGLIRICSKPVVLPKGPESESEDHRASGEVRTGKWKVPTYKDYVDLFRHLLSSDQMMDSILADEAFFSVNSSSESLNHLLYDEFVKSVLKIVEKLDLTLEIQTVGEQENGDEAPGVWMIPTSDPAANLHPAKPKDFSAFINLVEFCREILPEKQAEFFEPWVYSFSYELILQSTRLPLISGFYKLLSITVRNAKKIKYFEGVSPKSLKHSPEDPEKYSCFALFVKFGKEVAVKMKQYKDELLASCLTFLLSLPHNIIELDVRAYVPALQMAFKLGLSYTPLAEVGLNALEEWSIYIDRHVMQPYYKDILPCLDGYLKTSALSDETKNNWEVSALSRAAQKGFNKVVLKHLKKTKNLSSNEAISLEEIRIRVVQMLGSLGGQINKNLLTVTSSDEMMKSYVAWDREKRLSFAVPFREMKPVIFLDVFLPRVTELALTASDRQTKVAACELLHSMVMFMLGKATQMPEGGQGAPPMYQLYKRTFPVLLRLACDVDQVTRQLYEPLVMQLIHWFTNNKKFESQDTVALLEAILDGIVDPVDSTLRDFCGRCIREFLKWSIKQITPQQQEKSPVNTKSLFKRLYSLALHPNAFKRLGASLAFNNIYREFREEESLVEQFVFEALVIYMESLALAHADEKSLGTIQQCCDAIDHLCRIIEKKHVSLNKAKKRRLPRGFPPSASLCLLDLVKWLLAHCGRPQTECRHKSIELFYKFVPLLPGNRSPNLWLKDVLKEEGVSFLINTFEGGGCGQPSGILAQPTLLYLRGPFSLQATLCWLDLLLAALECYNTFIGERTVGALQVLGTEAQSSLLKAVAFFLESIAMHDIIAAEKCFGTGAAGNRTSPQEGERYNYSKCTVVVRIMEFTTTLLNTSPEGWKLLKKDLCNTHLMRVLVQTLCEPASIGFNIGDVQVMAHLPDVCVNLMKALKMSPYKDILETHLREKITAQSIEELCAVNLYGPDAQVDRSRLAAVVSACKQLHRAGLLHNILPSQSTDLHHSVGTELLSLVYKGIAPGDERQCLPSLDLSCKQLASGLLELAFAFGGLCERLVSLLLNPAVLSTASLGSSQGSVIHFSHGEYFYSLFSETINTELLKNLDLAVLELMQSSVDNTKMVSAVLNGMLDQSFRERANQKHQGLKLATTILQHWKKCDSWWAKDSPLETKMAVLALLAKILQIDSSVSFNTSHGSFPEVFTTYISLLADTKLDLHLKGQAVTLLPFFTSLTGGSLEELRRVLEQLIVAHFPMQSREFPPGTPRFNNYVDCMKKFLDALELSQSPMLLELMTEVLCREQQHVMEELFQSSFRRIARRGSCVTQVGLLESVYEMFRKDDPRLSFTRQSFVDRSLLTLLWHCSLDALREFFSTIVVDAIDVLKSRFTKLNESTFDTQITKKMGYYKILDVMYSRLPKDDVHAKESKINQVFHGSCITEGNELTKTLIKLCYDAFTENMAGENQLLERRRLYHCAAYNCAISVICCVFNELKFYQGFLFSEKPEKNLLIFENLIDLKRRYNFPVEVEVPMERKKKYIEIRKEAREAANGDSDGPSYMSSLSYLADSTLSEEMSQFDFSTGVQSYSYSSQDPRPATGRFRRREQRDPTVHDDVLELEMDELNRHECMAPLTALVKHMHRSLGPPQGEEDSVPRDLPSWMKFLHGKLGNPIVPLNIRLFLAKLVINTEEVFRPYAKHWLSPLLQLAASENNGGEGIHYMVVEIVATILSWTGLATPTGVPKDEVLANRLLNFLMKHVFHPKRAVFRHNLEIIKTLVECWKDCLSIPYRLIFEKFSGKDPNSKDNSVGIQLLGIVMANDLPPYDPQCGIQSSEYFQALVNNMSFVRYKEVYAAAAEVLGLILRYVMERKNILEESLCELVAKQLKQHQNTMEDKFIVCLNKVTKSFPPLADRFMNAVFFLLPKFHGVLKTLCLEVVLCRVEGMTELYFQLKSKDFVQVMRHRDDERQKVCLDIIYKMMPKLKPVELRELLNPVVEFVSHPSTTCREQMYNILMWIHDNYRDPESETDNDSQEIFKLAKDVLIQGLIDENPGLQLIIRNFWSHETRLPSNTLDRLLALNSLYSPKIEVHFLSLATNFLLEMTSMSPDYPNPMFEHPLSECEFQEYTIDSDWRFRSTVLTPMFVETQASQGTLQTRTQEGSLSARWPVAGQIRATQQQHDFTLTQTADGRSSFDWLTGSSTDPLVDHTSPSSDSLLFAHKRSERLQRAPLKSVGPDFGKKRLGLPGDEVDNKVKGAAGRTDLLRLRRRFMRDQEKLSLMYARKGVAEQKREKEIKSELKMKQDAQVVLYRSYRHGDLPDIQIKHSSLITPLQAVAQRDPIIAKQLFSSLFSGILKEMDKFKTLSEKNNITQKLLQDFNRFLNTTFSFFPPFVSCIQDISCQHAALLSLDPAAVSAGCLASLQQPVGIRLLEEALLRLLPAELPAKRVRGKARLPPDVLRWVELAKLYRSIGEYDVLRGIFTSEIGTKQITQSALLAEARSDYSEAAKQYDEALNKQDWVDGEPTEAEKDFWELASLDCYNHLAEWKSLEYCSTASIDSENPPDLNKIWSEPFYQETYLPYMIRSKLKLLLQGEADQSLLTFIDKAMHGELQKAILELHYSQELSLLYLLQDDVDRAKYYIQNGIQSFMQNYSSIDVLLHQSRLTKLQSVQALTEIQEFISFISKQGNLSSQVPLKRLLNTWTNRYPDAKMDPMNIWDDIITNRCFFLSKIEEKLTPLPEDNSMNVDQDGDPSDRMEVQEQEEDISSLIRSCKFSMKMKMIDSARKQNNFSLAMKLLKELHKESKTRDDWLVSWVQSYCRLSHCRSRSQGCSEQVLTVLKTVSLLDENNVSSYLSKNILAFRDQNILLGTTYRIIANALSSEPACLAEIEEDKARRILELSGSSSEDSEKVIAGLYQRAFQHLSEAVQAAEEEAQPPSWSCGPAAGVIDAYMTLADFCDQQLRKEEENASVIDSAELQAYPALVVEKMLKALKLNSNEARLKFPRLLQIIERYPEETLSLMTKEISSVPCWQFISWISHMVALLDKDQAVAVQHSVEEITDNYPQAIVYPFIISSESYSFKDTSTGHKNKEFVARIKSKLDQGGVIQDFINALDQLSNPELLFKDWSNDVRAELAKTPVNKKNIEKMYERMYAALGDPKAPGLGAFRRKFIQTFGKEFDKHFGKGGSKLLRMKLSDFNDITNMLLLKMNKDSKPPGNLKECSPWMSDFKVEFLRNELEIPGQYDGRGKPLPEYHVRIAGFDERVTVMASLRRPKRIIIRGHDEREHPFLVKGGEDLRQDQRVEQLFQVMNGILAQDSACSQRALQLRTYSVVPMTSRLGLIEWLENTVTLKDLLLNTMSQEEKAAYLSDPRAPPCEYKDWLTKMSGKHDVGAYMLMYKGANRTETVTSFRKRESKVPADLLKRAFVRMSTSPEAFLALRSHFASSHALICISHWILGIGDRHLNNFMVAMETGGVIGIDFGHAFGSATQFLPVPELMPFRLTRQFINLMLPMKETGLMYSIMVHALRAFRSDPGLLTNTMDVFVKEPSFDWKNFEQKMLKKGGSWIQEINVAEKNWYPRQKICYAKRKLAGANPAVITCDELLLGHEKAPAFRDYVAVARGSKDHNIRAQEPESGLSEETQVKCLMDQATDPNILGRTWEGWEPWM

Target: insulin-like growth factor-binding protein 3 (human (endogenous in human BCa cells)) (UniProt P17936)
Assay: co-IP; Co-IP Kit (Beyotime); lysates from 1 × 10^7 cells incubated overnight at 4 °C with antibody-conjugated protein A/G magnetic beads; BCa cells cisplatin-treated (2 μM) or hypoxic (1% O2) against untreated; precipitating antibody not stated

Substance | binding
epidermal growth factor receptor (from UniProt P00533 25-1210) | binds
DNA-dependent protein kinase catalytic subunit (from UniProt P78527 1-4128) (enzyme) | binds
